Experimental data published in article doi:10.1101/2020.03.08.982389.

Amino acid sequences for entries named in this document (tags omitted).
UniProt Q9VLM8: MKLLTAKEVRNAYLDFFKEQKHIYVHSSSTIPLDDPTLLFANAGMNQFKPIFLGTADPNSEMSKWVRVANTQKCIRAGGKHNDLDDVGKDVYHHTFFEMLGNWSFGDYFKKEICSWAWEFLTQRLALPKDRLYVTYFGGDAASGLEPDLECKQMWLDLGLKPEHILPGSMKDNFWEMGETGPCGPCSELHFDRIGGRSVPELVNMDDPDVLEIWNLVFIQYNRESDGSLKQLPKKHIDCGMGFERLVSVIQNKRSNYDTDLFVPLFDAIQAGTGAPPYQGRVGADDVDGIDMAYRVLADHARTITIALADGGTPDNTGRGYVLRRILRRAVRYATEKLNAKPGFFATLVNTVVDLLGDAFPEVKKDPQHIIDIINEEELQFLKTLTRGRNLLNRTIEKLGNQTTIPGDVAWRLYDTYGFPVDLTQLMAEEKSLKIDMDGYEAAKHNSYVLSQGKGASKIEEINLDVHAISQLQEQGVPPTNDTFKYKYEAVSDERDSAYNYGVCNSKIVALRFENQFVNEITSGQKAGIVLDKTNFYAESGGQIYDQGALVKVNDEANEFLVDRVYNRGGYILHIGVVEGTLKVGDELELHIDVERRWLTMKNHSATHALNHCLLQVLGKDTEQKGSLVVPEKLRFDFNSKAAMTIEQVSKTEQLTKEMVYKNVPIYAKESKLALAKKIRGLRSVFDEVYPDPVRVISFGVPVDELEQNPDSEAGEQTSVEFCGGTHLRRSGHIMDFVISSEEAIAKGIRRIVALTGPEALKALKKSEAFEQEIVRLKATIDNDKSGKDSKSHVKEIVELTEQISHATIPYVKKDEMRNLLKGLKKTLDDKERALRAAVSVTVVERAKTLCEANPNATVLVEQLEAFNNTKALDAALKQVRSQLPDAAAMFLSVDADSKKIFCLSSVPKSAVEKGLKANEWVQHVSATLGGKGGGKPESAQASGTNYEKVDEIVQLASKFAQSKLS

Target: GFP::Spg11-C (GFP-tagged Drosophila Spg11 C-terminus, amino acid residues 1468-1815) (Drosophila) (UniProt Q9W1Y8)
Experiment: affinity purification with mass spectrometry

| Substance | binding |
| --- | --- |
| Drosophila homolog of methionyl-tRNA synthetase (MARS) (from UniProt A1ZBE9) (enzyme) | binds |
| serine-tRNA synthetase (from UniProt Q9VQL1) (enzyme) | binds |
| Drosophila homolog of alanyl-tRNA synthetase (AARS) (from UniProt Q9VLM8 1-966) (enzyme) | binds |

Results are given in words; binding and its absence hold for the method and conditions named. Binding seen in cells or lysates may run through a third protein. These calls come from enrichment with a bait or labelling near it, and not all partners need be listed.
